Results reported in PubChem BioAssay AID493014 (National Center for Advancing Translational Sciences (NCATS), 2011).
This is one part of the list. Further columns of the screen follow, without active or inactive calls. Compounds called inactive in the main read-out are mostly missing here. Potencies come from curve fits of mixed quality, noted in brackets.

Test: qHTS Assay to Find Inhibitors of Chronic Active B-Cell Receptor Signaling
Details: ABC-DLBCL IkBa-CBG/CBR reporter, luminescence ratio (green luciferase fused to IkBa over red control in TMD8 lymphoma cells), 4 h
How it was run: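 Concentration-response series (up to 46 uM) were applied to TMD8 dual-reporter cells for 4 h at 37C with doxycycline. Green/red ratio, after filter-overlap correction, defined %Activity; red signal alone was normalised to basal cells and zero luminescence.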

[1] = measured here: CBR red luminescence, cell number
[2] = measured here: IkBa-CBG green luminescence

| Structure (SMILES) | AC50 [1] | AC50 [2] |
| --- | --- | --- |
| Cc1cccc(Cl)c1OCCCn1ccnc1 | 15.8 µM [rising, partial curve, poor fit] | – |
| O=C(NNC(=O)c1ccc[nH]1)c1cccc(C(F)(F)F)c1 | 3.98 µM [rising, single point] | – |
| CCOc1cccc(C2C(C#N)=C(N)Oc3cc(C)[nH]c(=O)c32)c1OCC (stereo unspecified) | 10 µM [rising, partial curve] | – |
| CC1(C)Cc2c(c(N3CCOCC3)nc3sc4c(=O)[nH]cnc4c23)CS1 | 10 µM [rising, partial curve] | – |
| COc1cccc(/C=N/NC(=O)c2c(C)nc3ccc(Br)cn23)c1 | 15.8 µM [falling, single point] | – |
| CC(=O)N1CCN(C(=S)c2ccc(-c3ccc(Cl)cc3)o2)CC1 | 3.98 µM [rising, full curve, poor fit] | – |
| CCc1nc(SCC(=O)c2ccccc2)c2c(=O)n(C)c(=O)n(C)c2n1 | 3.55 µM [falling, partial curve, poor fit] | – |
| O=C(N/N=C/c1cc(Cl)ccc1O)c1ccccc1Br | 3.55 µM [falling, partial curve, poor fit] | – |
| Cn1c(=O)c2c(nc(NCc3ccc4c(c3)OCO4)n2C)n(C)c1=O | 3.26 µM [falling, single point] | – |
| CC[C@@H](C(=O)[C@@H](C)[C@@H](O)[C@H](C)CCc1ccc(C)c(O)c1C(=O)O)[C@H]1O[C@](CC)([C@H]2CC[C@](O)(CC)[C@H](C)O2)C[C@@H]1C | 14.1 µM [rising, single point] | – |
| Cc1ccc(C(=O)COC(=O)c2ccc(O)cc2)cc1 | 15.8 µM [falling, partial curve, poor fit] | – |
| O=C(N/N=C/c1ccc2c(c1)OCO2)c1cccc(NC(=O)c2ccccc2Cl)c1 | 0.562 µM [falling, full curve, poor fit] | – |
| COC(=O)c1ccc(C(=O)NC(=S)Nc2nc3c(s2)CC(C)CC3)cc1 (stereo unspecified) | 1.84 µM [falling, full curve] | – |
| CC(=O)c1sc(NC(=O)c2ccc(C)cc2)nc1C | 5.62 µM [falling, single point] | – |
| CC(C)(C)OC(=O)NCCCC[C@@H](C(=O)NCCCCCCCCCCC(=O)N1CCN(C(=O)OC(C)(C)C)CC1)n1cc(CCO)nn1 | 23.1 µM [falling, single point] | – |
| CCOC(=O)C(=CNNc1c(C)csc1C(=O)OC)C(=O)OCC | 28.2 µM [falling, single point] | – |
| COc1cc(-c2nnc(COc3ccc(Cl)cc3C)o2)cc(OC)c1OC | 5.17 µM [rising, full curve] | – |
| O=c1cc(-c2ccc(F)cc2)[nH][nH]1 | 23.1 µM [falling, partial curve] | 20.6 µM [falling, partial curve, poor fit] |
| CCCCNC(=O)c1ccc(N2CCC3(CC2)OCCO3)c([N+](=O)[O-])c1 | 13 µM [rising, partial curve] | – |
| Cc1cccc(NC(=O)CN2C(=O)S/C(=C\c3ccc(-c4cccc(C(=O)O)c4C)o3)C2=O)c1 | 2.51 µM [falling, partial curve, poor fit] | – |
| Cc1cccc(-c2ocnc2C(=O)Nc2ccccc2C(=O)N2CCCC2)c1 | 7.08 µM [falling, partial curve, poor fit] | – |

Single entries from above:
In AC50 [1], O=C(N/N=C/c1cc(Cl)ccc1O)c1ccccc1Br has 3.55 µM [falling, partial curve, poor fit]
In AC50 [1], CC[C@@H](C(=O)[C@@H](C)[C@@H](O)[C@H](C)CCc1ccc(C)c(O)c1C(=O)O)[C@H]1O[C@](CC)([C@H]2CC[C@](O)(CC)[C@H](C)O2)C[C@@H]1C has 14.1 µM [rising, single point]
In AC50 [1], CC(=O)c1sc(NC(=O)c2ccc(C)cc2)nc1C has 5.62 µM [falling, single point]
In AC50 [1], Cc1cccc(NC(=O)CN2C(=O)S/C(=C\c3ccc(-c4cccc(C(=O)O)c4C)o3)C2=O)c1 has 2.51 µM [falling, partial curve, poor fit]
In AC50 [1], O=C(N/N=C/c1ccc2c(c1)OCO2)c1cccc(NC(=O)c2ccccc2Cl)c1 has 0.562 µM [falling, full curve, poor fit]

Continued.

| Structure (SMILES) | AC50 [1] | AC50 [2] |
| --- | --- | --- |
| COc1cc(SC)ccc1C(=O)Nc1ncc(Cl)cc1Cl | 0.355 µM [rising, full curve, poor fit] | – |
| O=C(CSc1nnc(-c2ccccc2O)o1)N1CCc2ccccc2C1 | 2.31 µM [rising, partial curve, poor fit] | – |
| O=C(Cn1nc(C(=O)O)c2ccccc2c1=O)c1c[nH]c2ccccc12 | 35.5 µM [falling, single point] | – |
| CC1(CCc2ccc(O)cc2)NC(=O)NC1=O (stereo unspecified) | 23.1 µM [rising, single point] | 29.1 µM [falling, partial curve, poor fit] |
| Cc1nnc(SCC(=O)Nc2cccc(S(=O)(=O)N3CCCCC3)c2)s1 | 6.51 µM [rising, single point] | – |
| COC(=O)C(N)Cc1ccc(O)c(O)c1 (stereo unspecified) | 5.8 µM [falling, single point] | – |
| Fc1ccc(-c2nnc3ccc(N4CCc5ccccc5C4)nn23)cc1 | 32.6 µM [falling, single point] | – |
| CCOc1ccc(CC2S/C(=N/c3ccccn3)NC2=O)cc1 (stereo unspecified) | 3.16 µM [rising, full curve] | – |
| O=C(N/N=C/c1ccccn1)c1ccccc1 | 11.6 µM [falling, partial curve] | – |
| Cc1sc(NC(=O)c2ccco2)c(C(c2cccnc2)N2CCN(C)CC2)c1C (stereo unspecified) | 35.5 µM [falling, partial curve, poor fit] | – |
| CCc1ccc(-n2c(=O)c3ccc(C(=O)NCCc4ccccc4)cc3n(CC(N)=O)c2=O)cc1 | 20 µM [rising, partial curve, poor fit] | – |
| Cc1ccccc1C(=O)N1CCN(c2ccc(NC(=O)c3ccc4c(c3)OCO4)cc2)CC1 | 14.1 µM [falling, partial curve, poor fit] | – |
| CCn1c(SCC(=O)Nc2ccccc2N2CCOCC2)nnc1-c1ccccc1O | 18.4 µM [falling, single point] | – |
| CCOC(=O)CC1C(=O)NCCN1Cc1cccc(C(F)(F)F)c1 (stereo unspecified) | 6.51 µM [falling, single point] | – |
| Cc1ccc(OC(C)C(=O)Nc2ccccc2C(=O)NCc2cccnc2)cc1C (stereo unspecified) | 35.5 µM [falling, single point] | – |
| Cc1ccc2nc(SCC(=O)c3ccc(O)cc3O)[nH]c2c1 | 0.447 µM [rising, full curve, poor fit] | – |
| CCN(CC)CCC(=O)N1c2ccccc2Sc2ccc(NC(=O)OC)cc21 | 15.8 µM [falling, partial curve] | – |
| C=CCNc1nc(-c2cc3ccccc3o2)cs1 | 5.17 µM [falling, partial curve] | – |
| O=C(CCCN1C(=O)/C(=C/c2ccc(F)cc2)SC1=S)NCCCn1ccnc1 | 3.16 µM [falling, full curve] | – |
| COc1cc(C2C3C(=O)N(c4ccccc4)C(=O)C3ON2c2ccccc2)ccc1O (stereo unspecified) | 17.8 µM [falling, single point] | – |
| S=C1NC(c2ccccc2)=NCN1c1ccccc1 | 6.51 µM [rising, single point] | – |

| Structure (SMILES) | AC50 [1] | AC50 [2] |
| --- | --- | --- |
| CCCCCc1c(C)nc(Nc2ccccc2)[nH]c1=O | 0.184 µM [rising, full curve, poor fit] | – |
| COc1ccccc1NC(=O)c1ccc(Br)o1 | 2.31 µM [rising, partial curve, poor fit] | – |
| CCC/C(O)=C1\C(=O)CC(C)(C)CC1=NCc1ccccc1 | 11.2 µM [falling, single point] | – |
| Cc1ccc(NC(=O)CSc2nc(-c3ccco3)nc3cc(=O)[nH]n23)c(Cl)c1 | 14.1 µM [rising, single point] | – |
| O=C(Nc1cccc(N2C(=O)C3CCCCC3C2=O)c1)c1ccccc1 (stereo unspecified) | 8.91 µM [falling, partial curve, poor fit] | – |
| COc1ccccc1-c1cc(C(F)(F)F)nc(S(=O)(=O)CCCC(=O)O)n1 | 18.4 µM [falling, single point] | – |
| COc1cccc(C(=O)Nc2nc3ccc(S(C)(=O)=O)cc3s2)c1 | 8.91 µM [falling, partial curve, poor fit] | – |
| COc1ccccc1C(CNc1ncnc2sc(C)c(C)c12)N(C)C (stereo unspecified) | 5.01 µM [falling, full curve, poor fit] | – |
| COc1cc2c(cc1NC(=O)CSc1nccn1C)oc1ccccc12 | 29.1 µM [falling, single point] | – |
| C=CCN(c1ccc(Cl)cc1)S(=O)(=O)c1cccc(C(=O)OCC(=O)N(C)C)c1 | 35.5 µM [falling, single point] | – |
| O=C(NCC1CCCO1)c1cccc(NC(=O)c2ccc(Br)cc2)c1 (stereo unspecified) | 17.8 µM [falling, single point] | – |
| Cc1ccc(S(=O)(=O)N2CCOCC2)cc1C(=O)OCC(=O)NCc1ccc2c(c1)OCO2 | 0.184 µM [rising, full curve, poor fit] | – |
| O=C(N/N=C/c1cc2ccccc2[nH]1)c1ccccc1Cl | 10 µM [falling, partial curve] | – |
| CCCOC(=O)C1C2C=C[C@]3(CN(CCc4ccccc4)C(=O)[C@H]13)O2 (stereo partly specified) | 7.94 µM [rising, partial curve, poor fit] | – |
| CCc1ccccc1Nc1nc2ccccc2n1C(C)C | 35.5 µM [rising, single point] | – |
| O=C(N/N=C/c1cc(O)ccc1Br)c1cccnc1 | 22.4 µM [falling, single point] | – |
| O=C(CCCC(=O)N(CC(=O)NC1CCCCC1)c1ccccc1F)Nc1ccccn1 | 28.2 µM [falling, single point] | – |
| O=C(NCCc1ccccc1)c1ccc2nc(-c3ccco3)c(-c3ccco3)nc2c1 | 8.2 µM [falling, partial curve] | 16.4 µM [rising, partial curve, poor fit] |
| Cc1ccccc1NC(=O)Nc1ccc2c(c1)OCO2 | 2.51 µM [falling, full curve] | – |
| Cc1ccc(S(=O)(=O)NN2C(=O)/C(=C/c3cccn3C)SC2=S)cc1 | 32.6 µM [falling, partial curve, poor fit] | 25.9 µM [rising, partial curve, poor fit] |
